# Results from article PMC2672083.
# Construct, isoform or probe ends are uncertain for at least one entry. Tags and fusion partners may be left off the protein sequences shown.
# Tests used:
# [1] = molecular target: T1, Har-POU (Helicoverpa armigera) (UniProt Q6R516); test: EMSA; settings: 4 mM MgCl2, poly(dI-dC), 10 mM HEPES-K+ pH 7.9, 10% glycerol, 50 mM KCl, 4 mM MgCl2, 1 mM DTT, 0.5 mg/ml BSA, 0.1 mM PMSF, 1 ug poly(dI-dC), 10 fmol probe in 20 ul, 27 C, 30 min, 5% native PAGE, protein translated in vitro, residues 1-351
# T1 sequence (looked up): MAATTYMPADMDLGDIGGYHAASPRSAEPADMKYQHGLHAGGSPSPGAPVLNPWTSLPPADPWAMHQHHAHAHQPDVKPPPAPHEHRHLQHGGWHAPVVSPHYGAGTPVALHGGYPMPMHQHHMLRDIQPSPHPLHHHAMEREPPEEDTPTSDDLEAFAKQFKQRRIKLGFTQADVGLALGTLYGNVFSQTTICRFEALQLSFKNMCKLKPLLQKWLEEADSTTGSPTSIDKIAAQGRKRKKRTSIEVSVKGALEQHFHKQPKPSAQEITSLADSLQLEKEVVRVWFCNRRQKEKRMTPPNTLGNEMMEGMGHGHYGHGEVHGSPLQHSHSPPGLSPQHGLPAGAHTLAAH
# [2] = molecular target: T1, Har-POU (Helicoverpa armigera); test: competition with a labelled probe; settings: 40-fold unlabeled H1 competes; 10 mM HEPES-K+ pH 7.9, 10% glycerol, 50 mM KCl, 4 mM MgCl2, 1 mM DTT, 0.5 mg/ml BSA, 0.1 mM PMSF, 1 ug poly(dI-dC), 10 fmol probe in 20 ul, 27 C, 30 min; 5% native PAGE; protein translated in vitro; residues 1-351; label: 32P (unlabeled as competitor)
Sequence,binding result ([1]; label: 32P),binding result [2],binding result ([1]; label: 32P (unlabeled as competitor))
CCCCTCATTTACATACATCCCCGTCCGAC (double strand) [S1],binds,–,–
TCCCTGATTTACATAAGATTTCCATTCG (double strand) [H1],–,binds,binds
CTTGTATACATTGTTTGCACAAATGTTTG (double strand) [SA],binds,–,–
